The values that follow come from PubChem BioAssay AID662 (National Center for Advancing Translational Sciences (NCATS), 2007).

In general, AC50 refers to the concentration at which the activity in the assay is half-maximal.

The list shows a part of the results. Further columns of the screen follow, without active or inactive calls. Most of these compounds were active or inconclusive in the main read-out, so they are no random draw. Words in brackets tell the shape of the fitted curve; partial curves, single points and poor fits give uncertain potencies.

The nature of the test: Cell signaling CRE-BLA (Fsk stim). As to conditions: CHO CRE-bla reporter (cAMP response element driving beta-lactamase), forskolin EC10, beta-lactamase ratio; measured here: 460 nm blue channel. The method, boiled down: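 Using CellSensor CRE-bla CHO cells in Opti-MEM with 0.5% dialyzed FBS, compounds were titrated with EC10 NKH 477 for 3 h at 37 °C. CCF4 ratio (460/530 nm) gave %Activity; AC50 derived.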
On to `COc1cc(OC)c(-c2nn3c(-c4ccncc4)nnc3s2)cc1OC`, for which the AC50 was 10 µM [rising, partial curve].
`COc1ccc(C(=O)Nc2nc(-c3cccs3)cs2)cc1`: the concentration at half-maximal activity (AC50) was 25.1 µM [falling, single point].
`CC1=C(C(=O)OCc2ccccc2)C(c2ccc3ccccc3c2)NC(=O)N1CCCCCC(=O)O` (centres undefined): the AC50 was 10 µM [rising, partial curve].
`Cc1c(C(=O)OC2CCC(C)CC2)[nH]c2c1C(=O)CCC2` (centres undefined): the AC50 is 10 µM [rising, partial curve].
As for `Clc1ccc(-c2nc3nc4ccccc4nc3n2Cc2ccco2)cc1`, the figure is 12.6 µM [rising, single point]; as for `CCOC(=O)Cn1nnc(-c2cccc(OC)c2)n1`, 0.01 µM [falling, full curve, poor fit]; as for `Nc1cc(Cl)ccc1Oc1ccccc1`, 0.00794 µM [falling, full curve, poor fit].
As for `Cn1c(C(=O)NC2CCCC2)cc2c(=O)n(C)c3ccccc3c21`, the AC50 is 5.01 µM [rising, partial curve].
Turning to `CSc1nnc2c(n1)OC(C)N(C(=O)c1ccccc1)c1ccccc1-2` (centres undefined), the AC50 was 0.0794 µM [falling, full curve].
In the case of `O=C(Nc1ccccc1Oc1ccccc1)c1ccc(Br)o1`, the AC50 is 1 µM [rising, partial curve].
For `COc1ccc(-c2cc(C(F)(F)F)nc(SCC(=O)Nc3cc(C)on3)n2)cc1OC`, the AC50 was 1.26 µM [rising, full curve].
Take `C=C(C)Cn1c(SCCCO)nc2c1c(=O)[nH]c(=O)n2C`: the AC50 was 15.8 µM [rising, single point].
As for `N#Cc1ccccc1Cn1c(=O)n(CCCC(=O)NCc2ccc3c(c2)OCO3)c(=O)c2ccccc21`, the figure is 0.316 µM [falling, partial curve].
The same measure for `COCCn1c(N2CCN(c3ccc(OC)cc3)CC2)nc2c1c(=O)[nH]c(=O)n2C`: 12.6 µM [falling, partial curve].
As to `Cc1cnc(NC(=O)CSc2nc3ccccc3c(=O)[nH]2)s1`, the AC50 is 10 µM [rising, partial curve].
Take `O=C(Cc1coc2cc3c(cc12)CCC3)OCc1cc(=O)n2c(n1)sc1ccccc12`: the AC50 is 15.8 µM [rising, single point].
Take `O=c1cnc2cnc(Oc3cccc(Cl)c3)nc2n1CCc1ccccc1`: the AC50 was 15.8 µM [rising, partial curve].
As to `CC(C)c1cc(Nc2cccc(O)c2)cc(C(C)C)c1O`, the AC50 is 12.6 µM [falling, partial curve].
Take `C=CCn1c(SCC2=C(C(=O)OCC)C(C)NC(=O)N2)nnc1C1CCCCC1` (centres undefined): the AC50 is 0.251 µM [falling, partial curve].
As for `CCOc1ncccc1C(=O)OCc1nnc(-c2ccccc2)o1`, the figure is 3.16 µM [rising, single point]; as for `CC(=O)c1ccc(NC(=O)CSc2nc3nc(C)cc(C)n3n2)cc1`, 10 µM [rising, partial curve]; as for `CCOCCCN(C(=O)CNC(=O)c1ccco1)C(C(=O)NC1CCCC1)c1ccccc1C` (centres undefined), 0.1 µM [falling, full curve].
As for `CC1N=C2c3ccccc3N=C(SCc3cc(=O)n4ccccc4n3)N2C1=O` (centres undefined), the figure is 0.794 µM [rising, full curve].
As for `O=C(COC(=O)CCCc1c[nH]c2ccccc12)Nc1ccc2c(c1)OCO2`, the figure is 5.01 µM [falling, single point]; as for `O=C(O)C1CC=CCC1C(=O)Nc1ccc(F)c(F)c1` (centres undefined), 3.16 µM [falling, single point].
For the compound `CC(C)Cn1nc(NC(=O)C2CCCO2)c2cc3ccccc3nc21` (centres undefined), the AC50 is 12.6 µM [rising, partial curve].
Regarding `OC1(CN2CCOCC2)C2CN3CCN(C2)CC1(c1ccccc1)C3` (centres undefined), the AC50 is 0.794 µM [falling, full curve].
The same measure for `N#CC1=C(N)Oc2cc(N)ccc2C1C1CC=CCC1` (centres undefined): 25.1 µM [rising, single point]; for `CC(=O)Nn1cc2c(=O)n(C)c(=O)n(C)c2c1`: 10 µM [falling, partial curve, poor fit]; for `CCNS(=O)(=O)c1ccc(NC(=O)Cn2nc(C(F)(F)F)cc2C)cc1`: 0.00501 µM [falling, full curve, poor fit].
For the compound `CCc1nc(N)c(C#N)c(-c2ccc(OC)c(OC)c2)c1C`, the AC50 is 12.6 µM [rising, partial curve].
The same measure for `Cc1c2c(nc3c(C(=O)NC4CCCC4)cnn13)CCCC2`: 2 µM [rising, full curve].
Turning to `COc1cc2[nH]c(=O)n(CCCC(=O)NCCc3ccccc3)c(=O)c2cc1OC`, the AC50 was 12.6 µM [rising, single point].
As for `CCCn1c2ccccc2c2nc3ccccc3nc21`, the AC50 was 0.00794 µM [rising, full curve, poor fit].
As for `c1cncc(-c2nc(NCc3cccs3)c3ccccc3n2)c1`, the figure is 6.31 µM [rising, partial curve].
The same measure for `CC1CCC(NC(=O)c2cc3c(=O)n(C)c4ccccc4c3n2C)CC1` (centres undefined): 3.16 µM [rising, single point]; for `Cc1ccc(C(=O)Nc2ccc3c(c2)nc2n3CCSC2)cc1`: 0.631 µM [rising, full curve].
The same measure for `N#CCCNCC1(c2ccccc2)CCCC1`: 5.01 µM [falling, single point]; for `CCn1nc(NS(=O)(=O)c2ccccc2)c2cc3cccc(C)c3nc21`: 25.1 µM [rising, single point]; for `COc1ccc(C(=O)N2CCN(c3nc4cc(C)ccc4cc3C#N)CC2)c(OC)c1`: 25.1 µM [falling, single point].
For the compound `O=C(c1ccc(CS(=O)(=O)c2ccccc2)o1)N1CCN(c2ncccn2)CC1`, the AC50 was 12.6 µM [rising, partial curve].
As for `O=C(Nc1nc(-c2nc3ccccc3s2)cs1)C1CC1`, the AC50 is 12.6 µM [rising, partial curve].
Turning to `C=C(C)COc1ccc(-c2[nH]ncc2Oc2cccc(OC)c2)c(O)c1`, the AC50 was 10 µM [falling, partial curve].
`COc1ccc(OC)c(S(=O)(=O)N2CCCCC2C(=O)N2CCN(c3ccccn3)CC2)c1` (centres undefined): the half-maximal activity concentration (AC50) is 25.1 µM [rising, single point].
